For assay [1], the system named is ReNCell VM. Briefly: neuronal differentiation score (DCX+ cell fraction vs untreated, manual image score) (score (-3 to 3)); higher = more neuronal differentiation. The conditions noted are these: 2 uM, 2 weeks.
In assay [2] the test system is ReNCell VM. Kind of assay: dopaminergic neuron differentiation score (TH+ cell fraction vs untreated, manual image score) (score (0 to 3)); higher = more TH+ dopaminergic neuron differentiation. The conditions noted are these: 2 uM, 4 weeks, BDNF 10 ng/ml + GDNF 10 ng/ml.

Where a name gives a salt, the structure may show the parent alone. The list shows a part of the results. This data set is noisy: repeats of one test often differ as much as different tests do.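 Human fetal ventral-midbrain neural progenitor line ReNCell VM, differentiated without mitogens. Images stained for doublecortin (early neurons) or tyrosine hydroxylase (dopaminergic neurons) were scored by blinded raters against untreated wells (0 = no change). Repeats and both raters were averaged, and compounds averaging 2 or higher were picked as hits for retesting.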

As to `CC(=O)[C@@]1(O)CC[C@H]2[C@@H]3C[C@H](C)C4=CC(=O)C=C[C@]4(C)[C@@]3(F)[C@@H](O)C[C@@]21C` [Fluorometholone], the neuronal differentiation score in assay [1] (library: Prestwick) is inactive: 0. Also, in assay [2] (library: Prestwick), the “dopaminergic neuron differentiation score” value was inactive: 0.
`Cc1ccnc(NS(=O)(=O)c2ccc(N)cc2)n1` [Sulfamerazine]: in assay [1] (library: Prestwick), the neuronal differentiation score is inactive: 0. Moreover, in assay [2] (library: Prestwick), the “dopaminergic neuron differentiation score” value was inactive: 0.
For `CCCCc1nc(Cl)c(CO)n1Cc1ccc(-c2ccccc2-c2nnn[nH]2)cc1` [Losartan], the neuronal differentiation score in assay [1] (library: Prestwick) was inactive: 0. For the same molecule, in assay [2] (library: Prestwick), the “dopaminergic neuron differentiation score” value was inactive: 0.
In the case of `COc1ccc2c(c1)O[C@H]1c3ccc(OC)cc3OC[C@@H]21`, in assay [1] (library: Spectrum), the neuronal differentiation score was inactive: 0. For the same molecule, the “dopaminergic neuron differentiation score” value in assay [2] (library: Spectrum) is inactive: 0.
On to `Cc1cccc(CCN2CCC(C(=O)c3ccc(NS(C)(=O)=O)cc3)CC2)n1` [E-4031 dihydrochloride], for which the neuronal differentiation score in assay [1] (library: Tocriscreen) was inactive: 0. In addition, in assay [2] (library: Tocriscreen), the “dopaminergic neuron differentiation score” value is inactive: 0.
For `Cc1cc(C(C)(C)C)cc(C)c1CC1=NCCN1`, the neuronal differentiation score in assay [1] (library: Spectrum) was inactive: 0. Besides, the “dopaminergic neuron differentiation score” value in assay [2] (library: Spectrum) was inactive: 0.
Regarding `CCN(CC)CCNC(C(=O)OCCC(C)C)c1ccccc1` (centres undefined), in assay [1] (library: Spectrum), the neuronal differentiation score was inactive: 0. The “dopaminergic neuron differentiation score” value in assay [2] (library: Spectrum) was inactive: 0.
`N#Cc1ccc(C(c2ccc(C#N)cc2)n2cncn2)cc1`: the neuronal differentiation score in assay [1] (library: Spectrum) is inactive: 0. Also, in assay [2] (library: Spectrum), the “dopaminergic neuron differentiation score” value was inactive: 0.
For the molecule `O=c1oc2ccccc2c(O)c1Cc1c(O)c2ccccc2oc1=O` [3,3'-methylene-bis(4-hydroxycoumarin)], in assay [1] (library: Phytochemical), the neuronal differentiation score is inactive: 0. The “dopaminergic neuron differentiation score” value in assay [2] (library: Phytochemical) is inactive: 0.
`COc1ccc(C2CNC(=O)C2)cc1OC1CCCC1` (centres undefined): in assay [1] (library: Spectrum), the neuronal differentiation score was inactive: 0. Further, the “dopaminergic neuron differentiation score” value in assay [2] (library: Spectrum) is inactive: 0.
Regarding `COc1cc2c(cc1OC)-c1cc3ccc(OC)c(OC)c3c[n+]1CC2` [Palmatine chloride], the neuronal differentiation score in assay [1] (library: Phytochemical) is inactive: 0. The “dopaminergic neuron differentiation score” value in assay [2] (library: Phytochemical) was inactive: 0.
Regarding `COc1ccc2c3c(c(=O)n(C)c2c1OC)C=CC(C)(C)O3` [Veprisine], the neuronal differentiation score in assay [1] (library: Phytochemical) was inactive: 0. Besides, the “dopaminergic neuron differentiation score” value in assay [2] (library: Phytochemical) was inactive: 0.
